Measurements published in patent publication US20130019345A1 (NATIONAL UNIVERSITY CORPORATION NARA INSTITUTE OF SCIENCE …, published 2013).
These are yes or no findings as the source states them, for the method shown. For some assays here: In cells and extracts the contact can be indirect. Some results given as binding are weak or reduced against the parent protein; the word gives no strength. For some assays here: Where a sequence is shown, tags or fusion partners need not be part of it.

Protein sequences, listed by entry. Tags and fused reporters are not part of them. Lines headed by an entry give the natural chain unless they say otherwise; changes in a name come on top.
UniProt Q93WI9: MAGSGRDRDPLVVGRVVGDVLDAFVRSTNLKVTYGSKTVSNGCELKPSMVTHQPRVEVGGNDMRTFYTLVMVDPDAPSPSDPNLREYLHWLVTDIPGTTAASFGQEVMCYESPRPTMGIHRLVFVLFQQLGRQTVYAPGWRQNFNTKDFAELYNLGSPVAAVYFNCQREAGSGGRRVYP

T1: GST-fused GF14c protein (full-length GF14c, residues 1 to 256) (rice) (UniProt Q6ZKC0)
T1 sequence: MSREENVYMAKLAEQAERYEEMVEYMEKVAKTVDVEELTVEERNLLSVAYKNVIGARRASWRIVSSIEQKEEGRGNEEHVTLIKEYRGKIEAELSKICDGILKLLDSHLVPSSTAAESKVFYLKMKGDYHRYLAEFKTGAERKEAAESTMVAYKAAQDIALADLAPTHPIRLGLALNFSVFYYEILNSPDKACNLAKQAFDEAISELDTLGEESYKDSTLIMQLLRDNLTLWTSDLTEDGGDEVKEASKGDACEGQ


How the values were obtained:
[1] = molecular target: T1, GST-fused GF14c protein (full-length GF14c, residues 1 to 256) (rice); assay: in vitro GST pull-down, GST-GF14c on glutathione resin, SDS-PAGE
[2] = molecular target: 15N stable isotope-labeled Hd3a protein (rice) (UniProt Q93WI9); assay: 15N-HSQC NMR, 0.2 mM 15N-Hd3a with GF14c at a molar ratio of 1:0.5

Row | binding [1] | binding [2] | Molecule
1 | binds | – | full-length Hd3a (residues 1 to 179), not fused with GST (from UniProt Q93WI9 1-179)
2 | – | binds | GF14c protein unlabeled with a stable isotope (protein) MSREENVYMAKLAEQAERYEEMVEYMEKVAKTVDVEELTVEERNLLSVAYKNVIGARRASWRIVSSIEQKEEGRGNEEHVTLIKEYRGKIEAELSKICDGILKLLDSHLVPSSTAAESKVFYLKMKGDYHRYLAEFKTGAERKEAAESTMVAYKAAQDIALADLAPTHPIRLGLALNFSVFYYEILNSPDKACNLAKQAFDEAISELDTLGEESYKDSTLIMQLLRDNLTLWTSDLTEDGGDEVKEASKGDACEGQ
